Laboratory results from patent publication US20030186370A1, “5ht3 receptors of nematodes, polynucleotide molecules encoding same, and antagonists thereof” (priority 2000, published 2003).
At least one structure is not confirmed: it was looked up by name or label, or the drawing left a doubt.

Tests used:
Helicoverpa armigera = test: Growth of neonate H. armigera on surface-contaminated artificial diet; format: in vivo; conditions: surface contamination
C. elegans [1] = test: Effects of 5-HT receptor class-selective agonists and antagonists on C. elegans pharyngeal pumping and locomotion on agar; format: in vivo; conditions: for Effect on locomotion: Table 3 experiment
Protocol: For the experiments described below C. elegans of the Bristol N2 strain (Brenner, S. 1974. The genetics of Caenorhabditis elegans, Genetics, 77: 71-94) were cultured at room temperature on HMS174 E. coli bacteria (Campbell J. L. et al. 1978. Genetic recombination and complementation between bacteriophage T7 and cloned fragments of T77 DNA. Proc. Natl. Acad. Sci. USA. 75: 2276-2280) on NGM agar (Sulston, J. and Hodgkin, J. 1988, “Methods” in The nematode Caenorhabditis elegans. W. B. Wood pp 587-606. Cold Spring Harbor Laboratory Press, New York) unless otherwise described.
Studies were therefore conducted wherein selective 5-HT1, 5-HT2 and 5-HT3 agonists were applied at known concentrations to agar on which C. elegans was held in the absence of food and the effects on movement and pharyngeal pumping monitored over a period of 2-3 hours.
Studies were also conducted to investigate the ability of selective vertebrate 5-HT3 antagonists to inhibit the 5-HT-induced increase in pharyngeal pumping.

Myzus persicae = test: Green Peach Aphid artificial diet sachet bioassay, growth and survival; format: in vivo; conditions: 1 mM, 100 μM, 10 μM in artificial diet, 5 days
Protocol: The effects of MDL 72222 on Green Peach Aphid (Myzus persicae) was also tested. The bioassay involved testing compounds at 3 different concentrations (1 mM, 100 μM, 10 μM) in an artificial diet. Compounds that were not water-soluble were forced into solution using a non-toxic surfactant. For each compound, each concentration was tested in 10 replicate assays. In each replicate, 5 aphids were allowed to feed on the test solution in a Parafilm® sachet for a period of 5 days. Survivorship and aphid growth rate were compared among the test concentrations and a control containing only the artificial diet with surfactant.

[2] = system: snail 5-HT3-like ion channel; conditions: Green et al. 1996; read-out: IC50 on the snail 5-HT3-like ion channel / 5-HT gated conductance; cited from earlier work
C. elegans [3] = test: Chronic exposure protocol: nematode growth and survival on NGM agar containing the compound; format: in vivo; conditions: concentrations down to 80 μM
Protocol: Because the pharyngeal pump is essential for nematode feeding and the maintenance of the nematode “hydrostatic skeleton” [Brownlee, D. J. A. et al. 1997, supra] and a previously established target organ for nematicides, an investigation was conducted to assess whether the 5-HT3-selective antagonists would function as nematicidal agents in a chronic exposure protocol.
C. elegans nematodes were cultured on the HMS/174 strain of E. coli [Campbell, J. L. et al. 1978. Genetic recombination and complementation between bacteriophage T7 and cloned fragments of T7 DNA. Proc. Natl. Acad. Sci. USA. 75: 2276-2280] on NGM agar [Sulston, J. and Hodgkin, J. 1988, supra] in the wells of six well tissue culture cluster, 2 ml agar per well. MDL72222 was incorporated into the agar at the specified concentrations using ≦65 μl of acetone as a carrier. A control well contained 65 μl of acetone only. Between five and 11 L1 stage C. elegans were transferred to each well and the wells were incubated at 22° C. for up to four weeks. All concentrations >10 μM MDL 72222 caused developmental delays. Concentrations of MDL 72222 down to 80 μM caused 40 % mortality within three days. […] The bacterial food therefore remained uneaten for prolonged periods.
Concentrations of MDL72222 down to 20 μM caused 90-100% mortality within 21 days and concentrations as low as 10 μM and 5 μM caused 50-100% mortality at 21 days. […]

SMILES: CN1[C@@H]2CC[C@H]1C[C@@H](OC(=O)c1cc(Cl)cc(Cl)c1)C2 [MDL 72222]
- Effect on growth and development of neonate H. armigera (Helicoverpa armigera): mild antifeedant effect
- Effect on locomotion (C. elegans [1]; 0.325 mM antagonist plus 0.325 mM serotonin): >50% of nematodes did not
- Effect on locomotion (C. elegans [1]; 0.325 mM, nothing else added): >50% of nematodes did not
- Suppression of pumping (C. elegans [1]; compared with F18 knockdown): completely suppresses pumping in all nematodes tested
- Effect on 5-HT-induced pharyngeal pumping (C. elegans [1]; inhibitor alone, 0.325 mM, equimolar with 5-HT): completely reversed the effect of the 5-HT
- Effect on M. persicae (Myzus persicae): dose-dependent mortality and significant reduction in weight gain
- IC50 [2]: 1000 nM
- Death of the nematodes (C. elegans [3]): died within a week
- Hatching of progeny (C. elegans [3]): almost all their progeny were unable to hatch from the eggs
